Percent effect of library compounds

Amino acid sequences for entries named in this document (tags omitted). Residues count along the entry.
UniProt A4I591, 1-473: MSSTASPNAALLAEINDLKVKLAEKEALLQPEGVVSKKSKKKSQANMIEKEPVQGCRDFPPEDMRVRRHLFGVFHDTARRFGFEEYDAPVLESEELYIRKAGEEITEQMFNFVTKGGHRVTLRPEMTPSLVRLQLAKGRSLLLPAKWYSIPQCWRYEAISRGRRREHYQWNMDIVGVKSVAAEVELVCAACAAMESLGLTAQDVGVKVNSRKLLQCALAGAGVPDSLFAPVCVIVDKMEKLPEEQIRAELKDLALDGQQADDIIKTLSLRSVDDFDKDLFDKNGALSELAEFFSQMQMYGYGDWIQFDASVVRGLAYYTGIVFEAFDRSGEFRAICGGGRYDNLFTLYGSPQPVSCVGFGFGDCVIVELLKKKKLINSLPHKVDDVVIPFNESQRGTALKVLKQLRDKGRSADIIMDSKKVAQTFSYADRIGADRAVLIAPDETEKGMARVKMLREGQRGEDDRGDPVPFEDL
UniProt Q4DA54, 1-478: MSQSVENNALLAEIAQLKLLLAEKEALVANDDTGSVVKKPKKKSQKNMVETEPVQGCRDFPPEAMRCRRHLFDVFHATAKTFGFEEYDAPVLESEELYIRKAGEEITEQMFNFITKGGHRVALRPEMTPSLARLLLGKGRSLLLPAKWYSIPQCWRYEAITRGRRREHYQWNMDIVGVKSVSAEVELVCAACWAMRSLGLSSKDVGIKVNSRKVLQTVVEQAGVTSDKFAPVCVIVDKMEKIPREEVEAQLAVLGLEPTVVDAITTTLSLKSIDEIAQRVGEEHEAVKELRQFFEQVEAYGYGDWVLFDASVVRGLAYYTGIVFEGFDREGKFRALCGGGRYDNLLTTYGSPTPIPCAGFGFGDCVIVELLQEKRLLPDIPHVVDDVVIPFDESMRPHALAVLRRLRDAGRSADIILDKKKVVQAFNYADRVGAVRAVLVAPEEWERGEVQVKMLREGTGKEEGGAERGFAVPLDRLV
UniProt Q8IDJ8, 1-583: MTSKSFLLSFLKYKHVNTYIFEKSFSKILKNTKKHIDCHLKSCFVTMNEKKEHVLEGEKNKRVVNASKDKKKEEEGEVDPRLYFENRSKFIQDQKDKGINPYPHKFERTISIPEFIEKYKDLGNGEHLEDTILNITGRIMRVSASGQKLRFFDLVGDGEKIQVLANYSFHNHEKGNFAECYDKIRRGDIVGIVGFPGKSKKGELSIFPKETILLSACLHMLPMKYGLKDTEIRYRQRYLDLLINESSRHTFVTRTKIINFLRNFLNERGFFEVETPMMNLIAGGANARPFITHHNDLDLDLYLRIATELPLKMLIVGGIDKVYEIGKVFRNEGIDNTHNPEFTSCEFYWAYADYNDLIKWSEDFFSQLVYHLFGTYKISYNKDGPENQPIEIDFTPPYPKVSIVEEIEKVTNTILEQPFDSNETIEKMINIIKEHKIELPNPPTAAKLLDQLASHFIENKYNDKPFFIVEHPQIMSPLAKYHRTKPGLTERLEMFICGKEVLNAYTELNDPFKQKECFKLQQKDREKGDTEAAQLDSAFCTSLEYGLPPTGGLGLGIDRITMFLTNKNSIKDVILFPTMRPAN

LiHisRS: 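Histidine-tRNA ligase, Leishmania infantum (UniProt A4I591). Enzyme assay of histidyl-tRNA synthetase; the read-out is not stated. Tested at 30 µM. Direction is inferred from retests: higher values go with stronger inhibition. The assay is labelled LdHisRS but filed under L. infantum. Of about 69,000 compounds tested this way, about 410 (0.6%) reached 50% or more in at least one test.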
TcHisRS: 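Histidine-tRNA ligase, Trypanosoma cruzi CL Brener (UniProt Q4DA54). Enzyme assay of histidyl-tRNA synthetase; the read-out is not stated. Concentration: 30 µM. The record gives no direction; compounds that gave an IC50 in retests scored well above the rest, so higher reads as stronger inhibition. Of about 69,000 compounds tested this way, about 31 (0.045%) reached 50% or more in at least one test.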
PfKRS1: 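Enzyme assay of the cytosolic lysyl-tRNA synthetase in 384-well plates, read by luminescence. Target: Lysine-tRNA ligase, Plasmodium falciparum 3D7 (UniProt Q8IDJ8). Concentration: 30 µM. Higher reads as stronger inhibition, judged from the few compounds that gave an IC50. Size under these conditions: about 69,000 compounds, about 49 of them at 50% or above in at least one test.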
Leishmania in macrophages: 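Cell assay of Leishmania donovani living inside macrophages; the read-out is not stated. Tested at 30 µM. Higher reads as stronger inhibition (inferred: compounds with an IC50 in retests scored well above the rest). Of about 69,000 compounds tested this way, about 1,000 (1.5%) reached 50% or more in at least one test.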

The filed quantity is “Percent Effect” (%).
The controls that fix the scale are not given in the record; negative values are as filed.
Compounds were drawn at random from those tested, without regard to their results.
Two or more numbers in one place are separate tests of the same structure; such repeats can differ widely.

- CN(CCOCC1CC1)C(=O)Cn1cccc(C(F)(F)F)c1=O | LiHisRS: 15.38%; TcHisRS: 2.703%; PfKRS1: 7.566%; Leishmania in macrophages: -3.408%
- CC(C)c1cnc(CN(C)C2CCN(CCc3cnn(C)c3)C2)o1 (stereo unspecified) | LiHisRS: 12.07%; TcHisRS: 3.955%; PfKRS1: 1.227%; Leishmania in macrophages: 37.95%
- CN(C)CCNC(=O)CCC1CCN(C(=O)c2ccc(O)cn2)CC1 | LiHisRS: 6.667%; TcHisRS: 1.739%; PfKRS1: 6.93%; Leishmania in macrophages: -8.741%
- Cc1ccsc1CN(C)C(=O)Cn1nc(-c2ccc(F)cc2)oc1=O | LiHisRS: 22.86%; TcHisRS: -1.087%; PfKRS1: 3.889%; Leishmania in macrophages: 7.662%
- [H][C@]12CN(C(=O)c3ccc4c(c3)CCCC4)C[C@]1([H])N(C)C(=O)CO2 | Leishmania in macrophages: 8.789%
- Cc1ccc(CN2CC[C@H](O)[C@@H](n3ccc(=O)[nH]c3=O)CC2)cc1 | LiHisRS: 0%; TcHisRS: 11.24%; PfKRS1: 1.97%; Leishmania in macrophages: -6.521%
- CCc1cnc(C)nc1NC1CC(=O)N(CC)C1 (stereo unspecified) | LiHisRS: 19.28%; TcHisRS: 3.867%; PfKRS1: 4.601%; Leishmania in macrophages: 15.51%
- CC(NC(=O)N(C)Cc1ccsc1)c1ccc2c(c1)NC(=O)CO2 (stereo unspecified) | LiHisRS: 12%; TcHisRS: -0.3802%; PfKRS1: 6.682%; Leishmania in macrophages: 27.75%
- COc1c(Cl)cccc1NCc1csc(NC(C)=O)n1 | LiHisRS: 15.32%; TcHisRS: 10%; PfKRS1: -2.232%; Leishmania in macrophages: 71.24%
- O=C(O)C(F)(F)F.[H][C@@]12CCCO[C@]1([H])[C@H](OCC(=O)N(C)C)CN2Cc1scnc1C | Leishmania in macrophages: 17.95%
- O=C(O)C(F)(F)F.c1cnc(NCc2nnn3c2CN(CC2CC2)CCC3)nc1 | Leishmania in macrophages: 6.808%
- CS(=O)(=O)N[C@@H]1CCO[C@]2(CCN(C(=O)C3=CCCC3)C2)C1 | LiHisRS: 10.53%; TcHisRS: 2.762%; PfKRS1: 0.6636%; Leishmania in macrophages: 4.04%
- CC(C)n1cnnc1CN1CCC2(CCCN(C3CCCCC3)C2=O)C1 (stereo unspecified) | LiHisRS: 9.574%; TcHisRS: 5.025%; PfKRS1: 4.096%; Leishmania in macrophages: 41.45%
- COCCN1CCN(CC(=O)N(C)Cc2ccccc2)CC1C (stereo unspecified) | LiHisRS: 13.13%; TcHisRS: 5.806%; PfKRS1: 5.546%; Leishmania in macrophages: -3.279%
- Cc1ccc2c(c1)C(NCc1ccccn1)CC2 (stereo unspecified) | LiHisRS: 8.036%; TcHisRS: 8.621%; PfKRS1: -1.027%; Leishmania in macrophages: 34.38%
- Cc1cc(CN2CCN(C(=O)C3CCC3)[C@@H]3CS(=O)(=O)C[C@@H]32)ccc1F | LiHisRS: 20.55%; TcHisRS: 6.931%; PfKRS1: 7.489%
- O=C(O)C(F)(F)F.O=C(O)C(F)(F)F.O[C@H]1CCN(Cc2ccoc2)[C@H]1Cc1cccnc1 | Leishmania in macrophages: -1.848%
- Cc1noc(-c2ccc(N3CCN(Cc4ncccc4C)CC3)nc2)n1 | LiHisRS: 19.35%; TcHisRS: 7.772%; PfKRS1: 5.984%; Leishmania in macrophages: 7.21%
- COC(=O)c1cccc(C(=O)NCc2ccc(C)o2)n1 | LiHisRS: 5.263%; TcHisRS: 2.439%; PfKRS1: 3.248%; Leishmania in macrophages: 7.339% & -17.2%
- Nc1nc2c(c(NCc3cnc4c(c3)CCC4)n1)CCNC2 | LiHisRS: 15.96%; TcHisRS: 19.19%; PfKRS1: 6.5%; Leishmania in macrophages: 22.65%
- CCNC(=O)NC[C@@H]1C=C(C)[C@H](CC(=O)NCCN(C)C)C[C@H]1C(C)C | LiHisRS: 22.22%; TcHisRS: 14.85%; PfKRS1: 3.706%; Leishmania in macrophages: -11.1%
- CC(C)c1nnc(CN2CCCc3ccc(S(N)(=O)=O)cc32)o1 | LiHisRS: 7.254%; TcHisRS: 6.077%; PfKRS1: 5.68%; Leishmania in macrophages: 3.697%
- NCc1cnn(-c2ccccc2C(=O)NCCc2ccccn2)c1 | LiHisRS: 14%; TcHisRS: 6.742%; PfKRS1: 0.5096%; Leishmania in macrophages: 12.02%
- Cc1nc2c(c(N3CCCC(CO)C3)n1)CCN(Cc1ccco1)CC2 (stereo unspecified) | LiHisRS: 15.07%; TcHisRS: 8.911%; PfKRS1: 2.871%; Leishmania in macrophages: -21.6%
- CNc1nc(C(=O)N2CCCC(CO)(CCCOC)C2)cs1 (stereo unspecified) | LiHisRS: 1.6%; TcHisRS: 4.902%; PfKRS1: -0.9846%; Leishmania in macrophages: 4.745%
- Cn1cnnc1CN1CCC2(CCC(=O)N(Cc3ccccc3)C2)CC1 | LiHisRS: 14.17%; TcHisRS: 10.53%; PfKRS1: 2.137%; Leishmania in macrophages: 15.28%
- CCN1CCN(C(=O)c2ccn(C)c(=O)c2)CC1 | LiHisRS: 5.405%; TcHisRS: 4.887%; PfKRS1: 5.855%; Leishmania in macrophages: -16.86%
- Cn1cc(CCNCC2CNc3ccnn3C2)cn1 (stereo unspecified) | LiHisRS: 10.53%; TcHisRS: 9.244%; PfKRS1: 4.425%; Leishmania in macrophages: 3.732%
- CNC(=O)CN1CCN(C(=O)c2ccn(C)c(=O)c2)CC1 | LiHisRS: 11.3%; TcHisRS: 1.69%; PfKRS1: -2.321%; Leishmania in macrophages: -23.04%
- O=C1CCN(CCS(=O)(=O)c2ccc(Cl)cc2)CCN1 | LiHisRS: 24.49%; TcHisRS: 5.128%; PfKRS1: 4.798%; Leishmania in macrophages: 46.34%
- COC(=O)c1cccc(C2CNCCN2C)c1 (stereo unspecified) | LiHisRS: 7.194%; TcHisRS: 2.682%; PfKRS1: 0.1566%; Leishmania in macrophages: 23.22%
- CC(C)c1nnc2n1CCN(C(=O)COc1ccc(C(N)=O)cc1)C2 | LiHisRS: 4.959%; TcHisRS: -2.521%; PfKRS1: -0.7873%; Leishmania in macrophages: -4.343%
- O=C(c1ccncc1)N1CCc2c(COCC3CC3)cncc2C1 | LiHisRS: 17.65%; TcHisRS: 5.911%; PfKRS1: 1.347%; Leishmania in macrophages: 25.81%

Some entries from above, unchanged:

* Cn1cc(CCNCC2CNc3ccnn3C2)cn1 (stereo unspecified) : LiHisRS: 10.53%; TcHisRS: 9.244%; PfKRS1: 4.425%; Leishmania in macrophages: 3.732%
* COc1c(Cl)cccc1NCc1csc(NC(C)=O)n1 : LiHisRS: 15.32%; TcHisRS: 10%; PfKRS1: -2.232%; Leishmania in macrophages: 71.24%

Data taken from ChEMBL document CHEMBL3988442, “University of Dundee, Small-Polar-MMV Screening Library” (2021).